# Patent EP0155104A2, “Free analyte assay” (priority 1984, dated 1985)
# How the values were obtained:
# bovine serum albumin = experiment: Amerlex free T4 assay of euthyroid serum pool with added albumin and SSA
# serum binding proteins = experiment: Amerlex free T4 assay of euthyroid serum pool with added oleic acid (NEFA) and SSA
# [1] = Amerlex free T4 assay of analbuminaemic patient serum with SSA; conditions: no SSA: 7.1
smiles,measurement,setting,value
"O=C(O)c1cc(S(=O)(=O)O)ccc1O [SSA, 5-sulphosalicylic acid]",(Percentage of original value) FT4 value by kit,"bovine serum albumin; SSA 3x10^-3M, added albumin 0 g/l",100%
same,(Percentage of original value) FT4 value by kit,"bovine serum albumin; SSA 3x10^-3M, added albumin 10 g/l",118%
same,(Percentage of original value) FT4 value by kit,"bovine serum albumin; SSA 3x10^-3M, added albumin 20 g/l",125%
same,(Percentage of original value) FT4 value by kit,"bovine serum albumin; SSA 3x10^-3M, added albumin 40 g/l",146%
same,(Percentage of original value) FT4 value by kit,"bovine serum albumin; SSA 3x10^-3M, added albumin 80 g/l",224%
same,(Percentage of original value) FT4 value by kit,"bovine serum albumin; SSA 10^-3M, added albumin 0 g/l",100%
same,(Percentage of original value) FT4 value by kit,"bovine serum albumin; SSA 10^-3M, added albumin 10 g/l",114%
same,(Percentage of original value) FT4 value by kit,"bovine serum albumin; SSA 10^-3M, added albumin 20 g/l",120%
same,(Percentage of original value) FT4 value by kit,"bovine serum albumin; SSA 10^-3M, added albumin 40 g/l",150%
same,(Percentage of original value) FT4 value by kit,"bovine serum albumin; SSA 10^-3M, added albumin 80 g/l",207%
same,free T4 value as a percentage of value at zero oleic acid concentration,"serum binding proteins; SSA 2x10^-2 M, oleic acid 0 mM/l",100%
same,free T4 value as a percentage of value at zero oleic acid concentration,"serum binding proteins; SSA 2x10^-2 M, oleic acid 1.25 mM/l",85.8%
same,free T4 value as a percentage of value at zero oleic acid concentration,"serum binding proteins; SSA 2x10^-2 M, oleic acid 2.5 mM/l",75.2%
same,free T4 value as a percentage of value at zero oleic acid concentration,"serum binding proteins; SSA 2x10^-2 M, oleic acid 5 mM/l",66.7%
same,free T4 value as a percentage of value at zero oleic acid concentration,"serum binding proteins; SSA 2x10^-2 M, oleic acid 10 mM/l",78.0%
same,free T4 value as a percentage of value at zero oleic acid concentration,"serum binding proteins; SSA 2x10^-2 M, oleic acid 12.5 mM/l",101.4%
same,free T4 value as a percentage of value at zero oleic acid concentration,"serum binding proteins; SSA 2x10^-2 M, oleic acid 15 mM/l",129.1%
same,free T4 value as a percentage of value at zero oleic acid concentration,"serum binding proteins; SSA 2x10^-2 M, oleic acid 20 mM/l",202.1%
same,free T4 value as a percentage of value at zero oleic acid concentration,"serum binding proteins; SSA 2x10^-3 M, oleic acid 0 mM/l",100%
same,free T4 value as a percentage of value at zero oleic acid concentration,"serum binding proteins; SSA 2x10^-3 M, oleic acid 1.25 mM/l",87.4%
same,free T4 value as a percentage of value at zero oleic acid concentration,"serum binding proteins; SSA 2x10^-3 M, oleic acid 2.5 mM/l",83.5%
same,free T4 value as a percentage of value at zero oleic acid concentration,"serum binding proteins; SSA 2x10^-3 M, oleic acid 5 mM/l",74.0%
same,free T4 value as a percentage of value at zero oleic acid concentration,"serum binding proteins; SSA 2x10^-3 M, oleic acid 10 mM/l",91.3%
same,free T4 value as a percentage of value at zero oleic acid concentration,"serum binding proteins; SSA 2x10^-3 M, oleic acid 12.5 mM/l",105.5%
same,free T4 value as a percentage of value at zero oleic acid concentration,"serum binding proteins; SSA 2x10^-3 M, oleic acid 15 mM/l",113.4%
same,free T4 value as a percentage of value at zero oleic acid concentration,"serum binding proteins; SSA 2x10^-3 M, oleic acid 20 mM/l",188.2%
same,free T4 value as a percentage of value at zero oleic acid concentration,"serum binding proteins; SSA 5x10^-2 M, oleic acid 0 mM/l",100%
same,free T4 value as a percentage of value at zero oleic acid concentration,"serum binding proteins; SSA 5x10^-2 M, oleic acid 1.25 mM/l",82.1%
same,free T4 value as a percentage of value at zero oleic acid concentration,"serum binding proteins; SSA 5x10^-2 M, oleic acid 2.5 mM/l",74.0%
same,free T4 value as a percentage of value at zero oleic acid concentration,"serum binding proteins; SSA 5x10^-2 M, oleic acid 5 mM/l",61.8%
same,free T4 value as a percentage of value at zero oleic acid concentration,"serum binding proteins; SSA 5x10^-2 M, oleic acid 10 mM/l",70.0%
same,free T4 value as a percentage of value at zero oleic acid concentration,"serum binding proteins; SSA 5x10^-2 M, oleic acid 12.5 mM/l",81.3%
same,free T4 value as a percentage of value at zero oleic acid concentration,"serum binding proteins; SSA 5x10^-2 M, oleic acid 15 mM/l",104.1%
same,free T4 value as a percentage of value at zero oleic acid concentration,"serum binding proteins; SSA 5x10^-2 M, oleic acid 20 mM/l",143.9%
same,free T4 value as a percentage of value at zero oleic acid concentration,"serum binding proteins; SSA 5x10^-3 M, oleic acid 0 mM/l",100%
same,free T4 value as a percentage of value at zero oleic acid concentration,"serum binding proteins; SSA 5x10^-3 M, oleic acid 1.25 mM/l",106%
same,free T4 value as a percentage of value at zero oleic acid concentration,"serum binding proteins; SSA 5x10^-3 M, oleic acid 2.5 mM/l",83.2%
same,free T4 value as a percentage of value at zero oleic acid concentration,"serum binding proteins; SSA 5x10^-3 M, oleic acid 5 mM/l",75.2%
same,free T4 value as a percentage of value at zero oleic acid concentration,"serum binding proteins; SSA 5x10^-3 M, oleic acid 10 mM/l",92.8%
same,free T4 value as a percentage of value at zero oleic acid concentration,"serum binding proteins; SSA 5x10^-3 M, oleic acid 12.5 mM/l",92.0%
same,free T4 value as a percentage of value at zero oleic acid concentration,"serum binding proteins; SSA 5x10^-3 M, oleic acid 15 mM/l",101.6%
same,free T4 value as a percentage of value at zero oleic acid concentration,"serum binding proteins; SSA 5x10^-3 M, oleic acid 20 mM/l",160.8%
same,free T4 value as a percentage of value at zero oleic acid concentration,"serum binding proteins; SSA 10^-2 M, oleic acid 0 mM/l",100%
same,free T4 value as a percentage of value at zero oleic acid concentration,"serum binding proteins; SSA 10^-2 M, oleic acid 1.25 mM/l",90.4%
same,free T4 value as a percentage of value at zero oleic acid concentration,"serum binding proteins; SSA 10^-2 M, oleic acid 2.5 mM/l",90.4%
same,free T4 value as a percentage of value at zero oleic acid concentration,"serum binding proteins; SSA 10^-2 M, oleic acid 5 mM/l",72.1%
same,free T4 value as a percentage of value at zero oleic acid concentration,"serum binding proteins; SSA 10^-2 M, oleic acid 10 mM/l",82.4%
same,free T4 value as a percentage of value at zero oleic acid concentration,"serum binding proteins; SSA 10^-2 M, oleic acid 12.5 mM/l",98.5%
same,free T4 value as a percentage of value at zero oleic acid concentration,"serum binding proteins; SSA 10^-2 M, oleic acid 15 mM/l",123.5%
same,free T4 value as a percentage of value at zero oleic acid concentration,"serum binding proteins; SSA 10^-2 M, oleic acid 20 mM/l",186.0%
same,free T4 value as a percentage of value at zero oleic acid concentration,"serum binding proteins; SSA 10^-3 M, oleic acid 0 mM/l",100%
same,free T4 value as a percentage of value at zero oleic acid concentration,"serum binding proteins; SSA 10^-3 M, oleic acid 1.25 mM/l",94.4%
same,free T4 value as a percentage of value at zero oleic acid concentration,"serum binding proteins; SSA 10^-3 M, oleic acid 2.5 mM/l",86.1%
same,free T4 value as a percentage of value at zero oleic acid concentration,"serum binding proteins; SSA 10^-3 M, oleic acid 5 mM/l",77.0%
same,free T4 value as a percentage of value at zero oleic acid concentration,"serum binding proteins; SSA 10^-3 M, oleic acid 10 mM/l",88.1%
same,free T4 value as a percentage of value at zero oleic acid concentration,"serum binding proteins; SSA 10^-3 M, oleic acid 12.5 mM/l",110%
same,free T4 value as a percentage of value at zero oleic acid concentration,"serum binding proteins; SSA 10^-3 M, oleic acid 15 mM/l",118%
same,free T4 value as a percentage of value at zero oleic acid concentration,"serum binding proteins; SSA 10^-3 M, oleic acid 20 mM/l",285%
same,FT4 value,"[1]; SSA 3x10^-3 M, analbuminaemic patient serum",11.6 pmol/L
same,FT4 value,"[1]; SSA 5x10^-2 M, analbuminaemic patient serum (albumin 4 g/l), theoretical 11.0",9.4 pmol/L
same,FT4 value,"[1]; SSA 10^-3 M, analbuminaemic patient serum",10.4 pmol/L
